Laboratory results: patent publication US9164086B2, “Fluorescent dyes with phosphorylated hydroxymethyl groups and their use in light microscopy and imaging techniques” (Max-Planck-Gesellschaft zur Foerderung der Wissenschaften …, priority 2011, dated 2015)
Some of these results come from one statement about several compounds together. At least one structure is not confirmed: it was looked up by name or label, or the drawing left a doubt. Some ranges recur; such a range may be that of the whole group of compounds.

Legend:
[1] = Fluorescence spectra, quantum yield and excited state lifetime; format: physicochemical
Experimental: UV-visible absorption spectra were recorded on a Varian Cary 4000 UV-Vis spectrophotometer, and fluorescence spectra on a Varian Cary Eclipse fluorescence spectrophotometer. Reactions were carried out with magnetic stirring in Schlenk flasks equipped with septa or reflux condensers with bubble-counters under argon using a standard manifold with vacuum and argon lines. The MICROTOF spectrometer equipped with ESI ion source Apollo and direct injector with LC autosampler Agilent RR 1200 was used for obtaining mass spectra and high resolution mass-spectra (ESI-HRMS). ESI-HRMS were obtained also on APEX IV spectrometer (Bruker). ESI spectra were also obtained on a Varian 500MS spectrometer in some cases. HPLC system (Knauer): Smartline pump 1000 (2×), UV detector 2500, column thermostat 4000 (25° C.), mixing chamber, injection valve with 20 and 100 μL loop for analytical and preparative columns, respectively; 6-port-3-channel switching valve; analytical column: Eurospher-100 C18, 5 μm, 250×4 mm, 1.2 mL/min; preparative column: Eurospher-100-5 C18, 5 μm, 250×8 mm, 4 mL/min; solvent A: water+0.1% v/v trifluoroacetic acid (TFA); solvent B: CH3CN+0.1% v/v TFA; detection at 636 nm (if not stated otherwise). Normal phase analytical TLC was performed on MERCK ready-to-use plates with silica gel 60 (F254).

[2] = commercial dyes, solvent not stated; cited from earlier work

SMILES	Stokes shift [1]	absorption maximum [2]
CC(C)(C)OC(=O)CCCN1c2cc3oc(=O)c(-c4ccncc4)cc3cc2C(COP(=O)(OC(C)(C)C)OC(C)(C)C)=CC1(C)C [Compound 10]	70-80 nm	
CC1(C)C=C(COP(=O)(O)O)c2cc3cc(-c4ccncc4)c(=O)oc3cc2N1CCCC(=O)O [Compound 11]	70-80 nm	
CCOC(=O)CCCN1c2cc3oc(=O)c(-c4ccncc4)cc3cc2C(C)=CC1(C)C [Compound 18, reference compound]	70-80 nm	
CC1(C)C=C(CS(=O)(=O)O)c2cc3cc(-c4ccncc4)c(=O)oc3cc2N1CCCC(=O)O [Compound 20-H, reference compound]	70-80 nm	
O=C1OC2(c3cc(F)c(O)cc3Oc3cc(O)c(F)cc32)c2ccccc21 [Oregon Green™ 488]		480-490 nm
